Laboratory results: PubChem BioAssay AID1259308 (NCATS, 2017)
Screen: 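Genes whose loss raises luciferase production in HEK293 cells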 (primary screen). Cell system: human HEK293 embryonic kidney cells stably expressing firefly luciferase (HEK-CMV-Luc2-Hygro). Knock-down reagent: single siRNA against human genes, 0.8 pmol siRNA per well. Time to read-out: 72 h. Read-out: 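Reporter luminescence and viable-cell signal on separate replicate plates, given as percent of non-targeting control and median/MAD z-scores, plus per-cell luciferase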. Reading the numbers: total luciferase, z-score and total luciferase, % of control: higher = more reporter protein produced; luciferase per cell, z-score: higher = more reporter output per viable cell; viable cells, % of control: higher = more viable cells. Call rule: 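Active when the median/MAD z-score for overall luciferase is greater than 3; a gene was taken forward for validation with new siRNAs if at least two of its three siRNAs passed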. Meaning of the calls: active = raised luciferase; inactive = no rise.
Here is an unselected part of about 59,000 reagents tested. In the full data, about 1,510 (2.6%) are marked active. 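Calls use total luciferase alone and ignore viability, so some active siRNAs may act by altering cell number.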 Reagents against one gene are numbered here. Reagent sequences are not shown.

| gene knocked down | siRNA no. | total luciferase, z-score | total luciferase, % of control | luciferase per cell, z-score | viable cells, % of control | Outcome |
| --- | --- | --- | --- | --- | --- | --- |
| WDFY4 | 1 | -0.529 | 71.4 | -0.183 | 83.7 | inactive |
| WDFY4 | 2 | 1.28 | 107 | 1.33 | 84.5 | inactive |
| WDFY4 | 3 | -1.6 | 50.1 | -2.27 | 102 | inactive |
| GANAB | 1 | -1.13 | 59.5 | -1.23 | 91.9 | inactive |
| GANAB | 2 | -0.41 | 73.7 | -0.149 | 85.7 | inactive |
| GANAB | 3 | 0.51 | 92 | 1.28 | 73.3 | inactive |
| LINC02447 | 1 | -1.67 | 48.7 | -1.17 | 74 | inactive |
| LINC02447 | 2 | -0.531 | 71.3 | -0.349 | 87.4 | inactive |
| LINC02447 | 3 | 2.09 | 123 | 2.33 | 74.8 | inactive |
| PRAC1 | 1 | 0.0617 | 83.1 | 0.153 | 89.2 | inactive |
| PRAC1 | 2 | -1.09 | 60.2 | -1.22 | 92.7 | inactive |
| PRAC1 | 3 | -0.654 | 68.9 | -0.198 | 81.1 | inactive |
| PRKCQ-AS1 | 1 | -0.142 | 79.1 | -0.41 | 98.4 | inactive |
| PRKCQ-AS1 | 2 | -0.984 | 62.3 | -1.17 | 94.7 | inactive |
| PRKCQ-AS1 | 3 | -0.112 | 79.7 | 0.189 | 84.7 | inactive |
| DTX1 | 1 | -0.505 | 71.8 | -0.147 | 83.5 | inactive |
| DTX1 | 2 | -0.738 | 67.2 | -0.523 | 86.2 | inactive |
| DTX1 | 3 | -0.452 | 72.9 | -0.191 | 85.7 | inactive |
| BKGD | 1 | 0.799 | 97.8 | 0.406 | 98.2 | inactive |
| BKGD | 2 | -0.466 | 72.6 | -0.593 | 94.9 | inactive |
| BKGD | 3 | -0.122 | 79.5 | -0.977 | 115 | inactive |
| TMEM213 | 1 | -1.87 | 44.7 | -1.73 | 78.7 | inactive |
| TMEM213 | 2 | 0.808 | 98 | 0.694 | 91.2 | inactive |
| TMEM213 | 3 | -0.891 | 64.2 | -0.192 | 75.4 | inactive |
| CXCL1 | 1 | 0.506 | 91.9 | 0.418 | 92 | inactive |
| CXCL1 | 2 | 0.329 | 88.4 | 0.363 | 89.8 | inactive |
| CXCL1 | 3 | 0.0963 | 83.8 | -0.489 | 107 | inactive |
| NSL1 | 1 | 0.231 | 86.5 | 0.676 | 80.9 | inactive |
| NSL1 | 2 | 0.903 | 99.9 | 0.784 | 90.8 | inactive |
| NSL1 | 3 | 0.919 | 100 | 0.222 | 106 | inactive |
| CEP192 | 1 | -0.229 | 77.3 | 0.158 | 82.9 | inactive |
| CEP192 | 2 | -1.43 | 53.5 | -1.17 | 81.2 | inactive |
| CEP192 | 3 | -0.987 | 62.3 | -0.226 | 73.8 | inactive |
| LYPD4 | 1 | 1.3 | 108 | 0.372 | 109 | inactive |
| LYPD4 | 2 | -0.535 | 71.2 | -0.356 | 87.4 | inactive |
| LYPD4 | 3 | -0.0148 | 81.6 | 0.0861 | 89.1 | inactive |
| VWC2 | 1 | -0.904 | 63.9 | -1.28 | 100 | inactive |
| VWC2 | 2 | 0.104 | 83.9 | 0.357 | 85.4 | inactive |
| VWC2 | 3 | 0.784 | 97.5 | 0.0426 | 108 | inactive |
| PGPEP1L | 1 | 0.328 | 88.4 | 0.558 | 85.3 | inactive |
| PGPEP1L | 2 | 0.00524 | 82 | 0.11 | 89 | inactive |
| PGPEP1L | 3 | -0.161 | 78.7 | 1.21 | 63.9 | inactive |
| CASP8 | 1 | -0.404 | 73.9 | -0.577 | 96.1 | inactive |
| CASP8 | 2 | 0.627 | 94.3 | 0.0653 | 104 | inactive |
| CASP8 | 3 | 3.37 | 149 | 1.78 | 104 | active |
| UBL4B | 1 | -1.06 | 60.7 | -0.574 | 79 | inactive |
| UBL4B | 2 | -1.24 | 57.3 | -1.13 | 86.2 | inactive |
| UBL4B | 3 | -0.255 | 76.8 | 0.25 | 80.4 | inactive |
| SERPINA7 | 1 | -0.0189 | 81.5 | -0.945 | 117 | inactive |
| SERPINA7 | 2 | -1.1 | 60 | -1.36 | 95.9 | inactive |
| SERPINA7 | 3 | -1.42 | 53.7 | -1.41 | 87 | inactive |
| KLF2 | 1 | 0.17 | 85.3 | 2.97 | 43.6 | inactive |
| KLF2 | 2 | 0.167 | 85.2 | 1.32 | 67.3 | inactive |
| KLF2 | 3 | 0.786 | 97.5 | 1 | 83.7 | inactive |
| OR1K1 | 1 | -0.0686 | 80.5 | 0.161 | 86.3 | inactive |
| OR1K1 | 2 | 1.41 | 110 | 1.17 | 90.2 | inactive |
| OR1K1 | 3 | 0.332 | 88.5 | 0.107 | 96.1 | inactive |
| LARP1 | 1 | -0.2 | 77.9 | 0.0102 | 86.8 | inactive |
| LARP1 | 2 | 0.101 | 83.9 | -0.467 | 106 | inactive |
| LARP1 | 3 | -2.36 | 35 | -2.14 | 68.8 | inactive |
| TPTE2 | 1 | 0.185 | 85.6 | 1.13 | 71 | inactive |
| TPTE2 | 2 | -1.37 | 54.6 | -1.34 | 86.7 | inactive |
| TPTE2 | 3 | -0.378 | 74.4 | -0.639 | 98.3 | inactive |
| APLNR | 1 | 1.64 | 115 | 0.861 | 102 | inactive |
| APLNR | 2 | 0.306 | 88 | 0.556 | 84.9 | inactive |
| APLNR | 3 | -0.169 | 78.5 | -0.285 | 94.6 | inactive |
| PRG4 | 1 | -0.38 | 74.3 | -0.426 | 92.9 | inactive |
| PRG4 | 2 | 1.22 | 106 | 0.604 | 101 | inactive |
| PRG4 | 3 | -0.939 | 63.2 | -1.1 | 94.5 | inactive |
| ZNG1A | 1 | 2.22 | 126 | 1.32 | 99.5 | inactive |
| ZNG1A | 2 | 0.0584 | 83 | 0.0759 | 91 | inactive |
| ZNG1A | 3 | 0.39 | 89.6 | 0.31 | 92.3 | inactive |
| CYP27A1 | 1 | -0.32 | 75.5 | -0.364 | 92.9 | inactive |
| CYP27A1 | 2 | -0.605 | 69.8 | -0.704 | 94 | inactive |
| CYP27A1 | 3 | -1.09 | 60.1 | -0.273 | 72.2 | inactive |

Reformatted: entries from further up.
gene knocked down	siRNA no.	total luciferase, z-score	total luciferase, % of control	luciferase per cell, z-score	viable cells, % of control	Outcome
PRKCQ-AS1	3	-0.112	79.7	0.189	84.7	inactive
DTX1	1	-0.505	71.8	-0.147	83.5	inactive
DTX1	2	-0.738	67.2	-0.523	86.2	inactive
DTX1	3	-0.452	72.9	-0.191	85.7	inactive
BKGD	1	0.799	97.8	0.406	98.2	inactive
